Data as given in PubChem BioAssay AID1053208 (Peter MacCallum Cancer Centre, 2014).

Assay: 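Find knock-downs that sensitise mouse osteosarcoma cells to doxorubicin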 (primary screen)
Cells: mouse osteosarcoma cells, early-passage culture from an engineered mouse model of fibroblastic bone tumour
Reagent: siRNA pool against mouse genes, 40 nM
Time to read-out: about 120 h (48 h before drug, then 72 h with drug)
Treatment: doxorubicin 100 nM for 72 h, roughly 30-40% inhibitory dose
Measured: 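Luminescent ATP signal taken as viability with or without 100 nM doxorubicin for 72 h; mean of two wells set against non-targeting siRNA and turned into robust z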
Reading the numbers: viability z-score with doxorubicin and doxorubicin viability vs non-targeting: higher = more viable cells under doxorubicin; viability z-score without drug: higher = more viable cells with knock-down alone; z-score of drug to no-drug ratio: higher = less drug sensitisation by knock-down
Hit rule: 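a pool counts as active when its viability z-score with doxorubicin is -2 or below and its z-score without drug lies between -2 and 2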
Shown is a random part of about 17,000 reagents. 788 of all reagents (4.7%) were called active. 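Calls rest on z-score classes alone; an extra cut-off of viability at most 70% of control was not applied to them.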 Unmarked entries are inactive.

target gene,combined z-score class,viability z-score with doxorubicin,viability z-score without drug,z-score of drug to no-drug ratio,doxorubicin viability vs non-targeting
Mettl28,no change with or without drug,-0.67,-1.35,0.34,0.88
Gclc,low cell count with and without drug,-2.02,-2.19,-0.56,0.76
Tpx2,no change with or without drug,-0.9,-0.84,-0.22,0.86
Ifitm10,no change with or without drug,1.46,1.85,0.34,1.07
Ccng2,no change with or without drug,0.9,1.52,0,1.02
Ik,low cell count with and without drug,-2.81,-2.87,-1.12,0.69
Bet1,no change with or without drug,-0.22,0.17,-0.22,0.92
Lpo,no change with or without drug,0,-0.51,0.45,0.94
Plekhm3,no change with or without drug,-0.67,0.84,-1.12,0.88
Gnl3l,low cell count without drug only,-1.35,-3.2,1.12,0.82
Or4a15,high cell count without drug only,1.57,2.19,0.22,1.08
Trp53inp2,no change with or without drug,-0.9,-1.35,0.11,0.86

In a second layout: results already given.
{"target gene":"Tpx2","combined z-score class":"no change with or without drug","viability z-score with doxorubicin":-0.9,"viability z-score without drug":-0.84,"z-score of drug to no-drug ratio":-0.22,"doxorubicin viability vs non-targeting":0.86}
{"target gene":"Ifitm10","combined z-score class":"no change with or without drug","viability z-score with doxorubicin":1.46,"viability z-score without drug":1.85,"z-score of drug to no-drug ratio":0.34,"doxorubicin viability vs non-targeting":1.07}
{"target gene":"Ccng2","combined z-score class":"no change with or without drug","viability z-score with doxorubicin":0.9,"viability z-score without drug":1.52,"z-score of drug to no-drug ratio":0,"doxorubicin viability vs non-targeting":1.02}

The results go on:
target gene,combined z-score class,viability z-score with doxorubicin,viability z-score without drug,z-score of drug to no-drug ratio,doxorubicin viability vs non-targeting
Pecr,no change with or without drug,0.45,0.84,0,0.98
St14,no change with or without drug,-1.57,-1.18,-0.79,0.8
Utp25,no change with or without drug,0.22,-0.84,1.01,0.96
Zfp781a,no change with or without drug,1.46,0.84,1.01,1.07
Ush1c,no change with or without drug,-1.35,-0.17,-1.24,0.82
Prkx,no change with or without drug,-0.22,-1.01,0.56,0.92
Cpz,no change with or without drug,0.56,0.17,0.56,0.99
Alox5,no change with or without drug,1.12,0.17,1.12,1.04
